≈ marks a conversion by molar mass, not a printed value.
System: Candida albicans (Y0109)
Assay: Antifungal evaluation, MIC (NCCLS broth dilution)
Type: cell-based
Conditions: 46 h at 35 °C, range 1.25–640 μg/mL
Procedure: The three new polyketides 1–3 were evaluated for antifungal activity against Cryptococcus neoformans (ATCC 90113), Candida albicans (Y0109), Trichophyton rubrum (Cmccftla) and Microsporum gypseum (Cmccfmza) (Table 2), for in vitro cytotoxic activity against human cancer cell lines, HCT-116 (colon cancer), A549 (lung carcinoma), HeLa (cervical cancer), QGY-7703 (hepatocarcinoma), and MDA231 (breast adenocarcinoma) (Table 3), and protein tyrosine phosphatase 1B (PTP1B) inhibitory activity (Table 3). […] Cytotoxicity of compound 3 against A549, HeLa, QGY-7703, and MDA231 cell lines was weaker when compared to that of 1. […] The PTP1B inhibitors are recognized as potential therapeutic agents for the treatment of type II diabetes and obesity.
Antifungal IC50 values of woodylides A–C against C. neoformans were calculated as described by Ikhlas A. Khan et al.. Amphotericin B was used as the positive control. Minimal Inhibition Concentration (MIC) values of woodylides A–C were determined against three indicators (C. albicans, T. rubrum, and M. gypseum), following the […] (NCCLS) methods. Fluconazole was used as the positive control. […] The IC50 values were calculated by using the fit model 201 of XLfit 4.2 software.

MIC: 0.25 µg/mL (≈ 0.816 µM)
Structure (SMILES): OC(Cn1cncn1)(Cn1cncn1)c1ccc(F)cc1F [Fluconazole, reference compound]

— publication PMC3397464, “Woodylides A–C, New Cytotoxic Linear Polyketides from the South China Sea Sponge Plakortis simplex” (Marine Drugs, 2012)
